Some of these results come from one statement about several compounds together.
Test: PK of Sofosbuvir/Ledipasvir tablets fasted or with meals
Details: sofosbuvir/ledipasvir composition, fed vs fasted

## CC(C)OC(=O)[C@H](C)N[P@](=O)(OC[C@H]1O[C@@H](n2ccc(=O)[nH]c2=O)[C@](C)(F)[C@@H]1O)Oc1ccccc1 [Sofosbuvir, (S)-isopropyl 2-(((S)-(((2R,3R,4R,5R)-5-(2,4-dioxo-3,4-dihydropyrimidin-1(2H)-yl)-4-fluoro-3-hydroxy-4-methyltetrahydrofuran-2-yl)methoxy)(phenoxy)phosphoryl)amino)propanoate]
  increase in plasma exposure with food: ≤ 2 fold

Reference: patent publication US10039779B2, “Combination formulation of two antiviral compounds” (priority 2013, dated 2018)
